Data as given in PubChem BioAssay AID1347076 (National Center for Advancing Translational Sciences (NCATS), 2019).
Out of some 400,000 compounds screened, about 13,000 (3.2%) were called active. The inconclusive results got no clear call from the source; some entries with a clear call stand among them for comparison. The call rests on the fitted dose curve; in most records, active means well fitted cell-killing curve with a large enough effect; inconclusive means small, poorly fitted or top-dose-only effect, or effect the other way; inactive means flat fitted curve, though single readings scatter. Potencies of inconclusive entries are doubtful fits and often do not repeat.

Experiment: qHTS assay for MDR1-selective chemotherapeutics: Primary screen using the drug-selected MDR subline cells KB-V1; further: nearly all actives have a fitted effect of over 60% in size
Conditions: KB-V1 MDR cells viability, CellTiter-Glo, 72 h; activity change, negative = cytotoxicity: at 46.1 µM (top of the series)
Method in brief: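 Readout: CellTiter-Glo luminescence, 10 min after addition. Cells: KB-V1 MDR subline, 72 h at 37 degrees C with compound. Analysis: corrected, normalized data fitted to concentration-effect curves.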
On the % scale 0 is the no-effect control and ±100 the full control effect; potency means the concentration at half of the fitted maximal effect.

Row | Compound | Potency | activity change, negative = cytotoxicity
1 | CCn1cc(S(=O)(=O)N2CCN(c3ccc(Cl)cc3)CC2)cn1 | inconclusive: 23.1 µM [cytotoxic, single point] | –
2 | COC(=O)N1CCCc2cc(S(=O)(=O)N3CCN(c4ccccc4)CC3)ccc21 | inconclusive: 18.4 µM [cytotoxic, single point] | –
3 | CCCCNC(=O)CCCn1c(=O)c2ccccc2n(Cc2c(C)cc(C)cc2C)c1=O | – | inactive: -5.31%
4 | CC(C)Oc1ccc(Cn2c(=O)sc3ccccc32)cc1 | – | inactive: -5.32%
5 | COc1ccc([N+](=O)[O-])cc1N(CC(O)CN(CC(C)C)CC(C)C)S(=O)(=O)c1ccccc1 (stereo not given) | inconclusive: 14.6 µM [cytotoxic, single point] | –
6 | O=C(NC(=S)NC1CCSC1=O)c1ccccc1F (stereo not given) | inconclusive: 4.11 µM [rising, full curve, poor fit] | –
7 | Cc1cc(Cl)c2oc(C(=O)NCC(C)(C)N3CCOCC3)c(C)c2c1 | inconclusive: 2.31 µM [cytotoxic, full curve, poor fit] | –
8 | CC1(C)CC(=O)C=C(c2cccc(O)c2)C1 | – | inactive: 10.2%
9 | O=C(Nc1ccc(-c2nc3ccccc3s2)c(OC(=O)c2ccccc2)c1)c1ccccc1 | – | inactive: 3.85%
10 | Oc1ccc(/C=N/NC(=S)NCc2ccco2)cc1 | – | inactive: 6.23%
11 | Cc1cccc(C)c1NC(=O)C1(C)CN(S(C)(=O)=O)CC(=O)N1Cc1cccs1 (stereo not given) | – | inactive: 5.46%
12 | COc1cc2c(cc1OC)C(C)N(C(=O)c1cccs1)CC2 (stereo not given) | inconclusive: 13 µM [cytotoxic, partial curve] | –
13 | CN(C)CCCN(C(=O)c1ccc(S(=O)(=O)N2CCc3ccccc3C2)cc1)c1nc2c(F)cccc2s1 | – | inactive: -5.01%
14 | CC(=O)Nc1ccc(S(=O)(=O)NCc2ccc(C(=O)NCCN(C)Cc3ccccc3)cc2)cc1 | – | inactive: -6.78%
15 | COc1cc2c3c(n(C)c(=O)c2cc1OC)-c1cc2c(cc1C3=O)OCO2 | inconclusive: 9.2 µM [cytotoxic, partial curve] | –
16 | Cc1ccc(C(=O)CN(Cc2ccccc2)C2=NCCS2)cc1 | active: 16.4 µM | –
17 | CCC(=O)NC(c1ccc(OC)cc1)c1c(O)ccc2ccccc12 (stereo not given) | inconclusive: 16.4 µM [cytotoxic, single point] | –
18 | O=C(N/N=C/c1ccccc1F)c1cccc(NC(=O)c2ccccc2Cl)c1 | – | inactive: 12.1%
19 | CCn1cc(S(=O)(=O)Nc2ncccn2)cn1 | inconclusive: 29.1 µM [rising, single point] | –
20 | COc1cccc(C2SCC(=O)N2c2ccc(Br)cc2)c1OC (stereo not given) | inconclusive: 18.4 µM [cytotoxic, partial curve] | –
21 | O=C(CSc1nnc2scc(-c3ccccc3)n12)NCc1ccco1 | inconclusive: 29.1 µM [cytotoxic, single point] | –
22 | COc1ccc(C2CC(=O)c3c([nH]c(C(=O)OC4CCCCCC4)c3C)C2)cc1 (stereo not given) | – | inactive: 1.09%
23 | CC(C)N(CCC#N)C(=O)Nc1ccc2c(c1)CCO2 | inconclusive: 20.6 µM [rising, single point] | –
24 | CCOP(=O)(OCC)C(NC(=O)Nc1c(C)cc(C)cc1C)c1ccccc1 (stereo not given) | inconclusive: 29.1 µM [rising, single point] | –

Of the compounds above, these have a carbonyl joined to an NH by a bond outside any ring.
Row | Compound | Potency | activity change, negative = cytotoxicity
3 | CCCCNC(=O)CCCn1c(=O)c2ccccc2n(Cc2c(C)cc(C)cc2C)c1=O | – | inactive: -5.31%
6 | O=C(NC(=S)NC1CCSC1=O)c1ccccc1F (stereo not given) | inconclusive: 4.11 µM [rising, full curve, poor fit] | –
7 | Cc1cc(Cl)c2oc(C(=O)NCC(C)(C)N3CCOCC3)c(C)c2c1 | inconclusive: 2.31 µM [cytotoxic, full curve, poor fit] | –
9 | O=C(Nc1ccc(-c2nc3ccccc3s2)c(OC(=O)c2ccccc2)c1)c1ccccc1 | – | inactive: 3.85%
11 | Cc1cccc(C)c1NC(=O)C1(C)CN(S(C)(=O)=O)CC(=O)N1Cc1cccs1 (stereo not given) | – | inactive: 5.46%
14 | CC(=O)Nc1ccc(S(=O)(=O)NCc2ccc(C(=O)NCCN(C)Cc3ccccc3)cc2)cc1 | – | inactive: -6.78%
17 | CCC(=O)NC(c1ccc(OC)cc1)c1c(O)ccc2ccccc12 (stereo not given) | inconclusive: 16.4 µM [cytotoxic, single point] | –
18 | O=C(N/N=C/c1ccccc1F)c1cccc(NC(=O)c2ccccc2Cl)c1 | – | inactive: 12.1%
21 | O=C(CSc1nnc2scc(-c3ccccc3)n12)NCc1ccco1 | inconclusive: 29.1 µM [cytotoxic, single point] | –
23 | CC(C)N(CCC#N)C(=O)Nc1ccc2c(c1)CCO2 | inconclusive: 20.6 µM [rising, single point] | –
24 | CCOP(=O)(OCC)C(NC(=O)Nc1c(C)cc(C)cc1C)c1ccccc1 (stereo not given) | inconclusive: 29.1 µM [rising, single point] | –

(listing goes on)

Row | Compound | Potency | activity change, negative = cytotoxicity
25 | Cn1nnnc1Sc1ccc(C(=O)O)cc1[N+](=O)[O-] | inconclusive: 25.9 µM [rising, single point] | –
26 | O=C(CN1CCN(Cc2ccc(Cl)cc2)C1=O)NCCCN1CCN(c2ccc(F)cc2)CC1 | – | inactive: -13.8%
27 | CSc1ccc(/C=C(/NC(=O)c2ccc(C)cc2)C(=O)Nc2cccc(C)c2)cc1 | – | inactive: 29%
28 | Cc1cccc(N2CCN(C(=O)c3ccc(Cl)c(NC4=NC5CS(=O)(=O)CC5S4)c3)CC2C)c1 (stereo not given) | inconclusive: 29.1 µM [rising, single point] | –
29 | CCOC(=O)c1cn(-c2nc(-c3ccc(Cl)c(Cl)c3)cs2)c2c(F)c(N3CCOCC3)c(F)cc2c1=O | inconclusive: 14.6 µM [cytotoxic, partial curve] | –
30 | O=C(Nc1ccccc1O)c1cc(S(=O)(=O)N2CCCC2)ccc1Cl | – | inactive: -4.92%
31 | Cc1ccc(CNC(=O)CSc2ncc(S(=O)(=O)c3ccc(C)c(Cl)c3)c(=O)[nH]2)cc1 | – | inactive: -1.15%
32 | COc1ccccc1Oc1ccc(S(=O)(=O)N2CCCCC2C)cc1 (stereo not given) | inconclusive: 0.0092 µM [cytotoxic, full curve, poor fit] | –
33 | CCCCN(C)C(=O)c1nc2ccccn2c1CN1CCC[C@H]1C(=O)OC | – | inactive: 7.14%
34 | COc1ccc2c(c1)c1c(c(=O)n(-c3ccc(OC)c(OC)c3)c(=O)n1CC(=O)N1CCCC1)n2C | inconclusive: 18.4 µM [rising, single point] | –
35 | COc1ccc(-c2nnc(SCC(=O)N3c4ccccc4Sc4ccccc43)o2)cc1 | inconclusive: 10.3 µM [cytotoxic, partial curve, poor fit] | –
36 | O=C(Nc1ccc2nc(-c3cccnc3)[nH]c2c1)C12CC3CC(CC(C3)C1)C2 | inconclusive: 22.4 µM [cytotoxic, single point] | –
37 | COc1ccc(S(=O)(=O)N(CC(=O)NCCc2ccccc2)c2ccc(Cl)cc2)cc1 | inconclusive: 18.4 µM [rising, single point] | –
38 | NCCCC[C@H]1CNC(=O)C(=O)N1CCCCC1CCCCC1 | inconclusive: 5.8 µM [rising, partial curve, poor fit] | –
39 | Cc1cccc2cc3c(N)c(C(=O)N4CCc5ccccc54)sc3nc12 | active: 9.2 µM | –
40 | CCCOc1ccc(CC(=O)N/N=C\c2ccc(F)cc2)cc1 | inconclusive: 11.6 µM [cytotoxic, partial curve, poor fit] | –
41 | CC1CCCC(C)N1c1nnc(N)s1 (stereo not given) | inconclusive: 2.06 µM [rising, partial curve, poor fit] | –
42 | CCN(CC)c1ccc(NC(=O)c2ccc(Cl)nc2)cc1 | active: 4.61 µM | –
43 | CCOc1ccc(CN2CCC(C(=O)Nc3cccc(-c4ccn[nH]4)c3)CC2)cc1Cl | inconclusive: 29.1 µM [cytotoxic, single point] | –
44 | COc1c(C)cc(C(=O)C2CCCN(C(=O)CCc3scnc3C)C2)cc1C (stereo not given) | inconclusive: 2.91 µM [cytotoxic, full curve] | –
45 | COc1ccc(OCc2cc(C(=O)N3CCOCC3)no2)c(Cl)c1 | – | inactive: 18.8%
46 | CCc1ccc(OC(C)C(=O)N(Cc2ccccc2)C2CCS(=O)(=O)C2)cc1 (stereo not given) | inconclusive: 0.206 µM [cytotoxic, full curve] | –
47 | OCC1OC(n2cnc3c(NCc4ccco4)ncnc32)C(O)C1O (stereo not given) | inconclusive: 20.6 µM [cytotoxic, single point] | –
48 | COCCn1c(SCC(=O)N2CCC(C)CC2)nc2c([nH]c3ccccc32)c1=O | inconclusive: 1.46 µM [cytotoxic, full curve] | –

Copied from above, entries 44–45
Row | Compound | Potency | activity change, negative = cytotoxicity
44 | COc1c(C)cc(C(=O)C2CCCN(C(=O)CCc3scnc3C)C2)cc1C (stereo not given) | inconclusive: 2.91 µM [cytotoxic, full curve] | –
45 | COc1ccc(OCc2cc(C(=O)N3CCOCC3)no2)c(Cl)c1 | – | inactive: 18.8%

Remaining list, next part.

Row | Compound | Potency | activity change, negative = cytotoxicity
49 | CCn1c(SCc2ccccc2)nc2c(c1=O)SCC2 | inconclusive: 11.6 µM [cytotoxic, partial curve] | –
50 | CC1=C(C(=O)N2CCCCCC2)CC(CC(=O)NCc2cccs2)C(=O)N1CCC1=CCCCC1 (stereo not given) | inconclusive: 5.17 µM [cytotoxic, partial curve] | –
51 | O=[N+]([O-])c1c(Nc2cccc(O)c2)cc(Cl)c2nonc12 | inconclusive: 29.1 µM [cytotoxic, single point] | –
52 | COc1cccc(OCC(O)CN2CCN(CCN3C(=O)c4cccc5cccc(c45)C3=O)CC2)c1 (stereo not given) | inconclusive: 20.6 µM [cytotoxic, single point] | –
53 | Cc1cc(C)c2cc(CN(Cc3ccco3)C(=S)NCC3CCCO3)c(=O)[nH]c2c1 (stereo not given) | – | inactive: -14.9%
54 | CCCCC(OC(=O)c1ccco1)C(=O)NCc1ccc(C)cc1 (stereo not given) | inconclusive: 16.4 µM [rising, single point] | –
55 | O=C(NC1C=CS(=O)(=O)C1)c1sc2ccccc2c1Cl (stereo not given) | inconclusive: 29.1 µM [cytotoxic, single point] | –
56 | Cc1ccc(C(=O)O/N=C(\N)c2ccccn2)c(Cl)c1 | inconclusive: 32.6 µM [cytotoxic, single point] | –
57 | C[C@H](CO)N1C[C@H](C)[C@@H](CN(C)C(=O)Oc2ccccc2)OCc2cn(nn2)CCCC1=O | – | inactive: 0%
58 | N#CCSc1nc2ccccc2c(=O)n1C1CCCCC1 | inconclusive: 10.3 µM [cytotoxic, partial curve, poor fit] | –
59 | O=[N+]([O-])c1ccc(Cl)c(CN2CCN(c3ncc(Cc4ccccc4)cn3)CC2)c1 | active: 5.17 µM | –
60 | CCOc1cc(CNCc2ccccn2)cc(Cl)c1OCC | – | inactive: -1.3%
61 | COC(=O)c1sccc1-c1ccc(/C=N/OC(=O)c2ccccc2)o1 | inconclusive: 29.1 µM [cytotoxic, single point] | –
62 | CC(NC(=O)/C(=C/c1cccc([N+](=O)[O-])c1)NC(=O)c1ccco1)C(=O)O (stereo not given) | – | inconclusive: -64.4%
63 | CC(C)(C)OC(=O)N(CCc1ccccc1)Cc1ccc(OCc2cccc(NC(=O)C3CCCC3)c2)cc1 | – | inactive: 1.6%
64 | O=C(O)c1ccc(Cl)c(S(=O)(=O)Nc2ccccc2Cc2ccccc2)c1 | – | inconclusive: -4.23%
65 | Cc1cc(C)c(S(=O)(=O)Nc2cc(C)on2)c(C)c1 | inconclusive: 29.1 µM [rising, single point] | –
66 | COc1ccc(C(=O)NCCNc2ccc([N+](=O)[O-])cc2)cc1 | inconclusive: 18.4 µM [cytotoxic, single point] | –
67 | COC(=O)c1cc(S(=O)(=O)N(Cc2ccccc2)C(C)(C)C)c[nH]1 | – | inactive: -6.5%
68 | COc1ccc(OCC(=O)O/N=C(\N)Cc2cccs2)cc1 | inconclusive: 18.4 µM [rising, single point] | –
69 | Fc1cccc(F)c1/C=C/c1ccc2ccccc2n1 | inconclusive: 16.4 µM [cytotoxic, single point] | –
70 | COc1cc(C=C(c2nc3ccccc3s2)c2nc3ccccc3s2)cc(OC)c1O | inconclusive: 29.1 µM [cytotoxic, single point] | –
